# Results from PubChem BioAssay AID595 (National Center for Advancing Translational Sciences (NCATS), 2007).
# The campaign covered roughly 71,000 compounds. About 310 (0.44%) were called active. This list was built around the results that the source calls inconclusive (neither active nor inactive); the mix of calls is not that of the screen. Calls come from the whole dose curve; as a rule, active = well fitted curve in either direction with a large enough effect; inconclusive = small, poorly fitted or top-dose-only effect, or another doubt; inactive = flat fitted curve, though single readings scatter. Potencies of inconclusive entries are doubtful fits and often do not repeat.
# Test system: Hsp90 C-terminal peptide / TPR2A (Hop) interaction, human
# Assay: qHTS Assay for Disrupters of an Hsp90 Co-Chaperone Interaction
# Details: AlphaScreen TPR2A-His6 binding biotin-Hsp90 C-terminal peptide
# [1] = activity change, negative = inhibition: at 57 µM (top of the series) unless noted
# % is set by controls: 0 for no effect and ±100 for the full control effect; potency is the fitted concentration of half-maximal effect.
smiles,measurement,setting,value
Cc1cc(Nc2ccc(F)cc2F)n2ncnc2n1,"activity change, negative = inhibition",[1],inactive
COC(=O)COc1ccc(S(=O)(=O)NCc2ccco2)cc1Cl,"activity change, negative = inhibition",[1],inactive
CCOC(=O)C1CCCN(c2c(NCCCN(CC)c3ccccc3)c(=O)c2=O)C1 (stereo unspecified),"activity change, negative = inhibition",[1],inconclusive: 42.7%
CC1CCN(c2oc(-c3ccccc3F)nc2C#N)CC1,"activity change, negative = inhibition",[1],inconclusive: 41.2% [at 2.3 µM]
O=C(Nc1ccc(Cl)cc1)Nc1ccccc1C(=O)NCc1ccco1,"activity change, negative = inhibition",[1],inactive
OC12CCCCC1C(c1ccc3c(c1)OCO3)N(Cc1ccc(F)cc1)CC2 (stereo unspecified),"activity change, negative = inhibition",[1],inactive
c1ccc(-c2cc(-c3cc(-c4ccccn4)[nH]n3)n[nH]2)nc1,Potency,[1],"inconclusive: 3.98 µM [inhibitor, partial curve]"
CC[C@H](C(=O)[C@H](C)[C@H](O)[C@H](C)CCc1ccc(C)c(O)c1C(=O)O)[C@H]1O[C@](CC)([C@@H]2CC[C@@](O)(CC)[C@H](C)O2)C[C@H]1C,"activity change, negative = inhibition",[1],inactive
CCc1c(C)sc(NC(=O)c2cccs2)c1C(=O)OC(C)C,Potency,[1],active: 25.1 µM [activator]
COc1cccc(-c2cc(C(=O)Nn3cnnc3)c3ccccc3n2)c1,"activity change, negative = inhibition",[1],inactive
Cc1cccc(NCc2ccccc2O)c1C,"activity change, negative = inhibition",[1],inconclusive: 21.6%
Cc1cc(=O)[nH]c(SCC(=O)Nc2cccc(C(F)(F)F)c2)n1,"activity change, negative = inhibition",[1],inactive
NOCC(=O)O,"activity change, negative = inhibition",[1],inconclusive: 65.6%
O=C(C1CC1)N1CCN=C1SCc1cccc(F)c1,"activity change, negative = inhibition",[1],inconclusive: 51.6%
Cc1cc(C)cc([N+](=O)[O-])c1,"activity change, negative = inhibition",[1],inactive
CC1=NNC(=S)NCCCN2CCN(CCCNC(=S)NN=C(C)C=NNC(=S)NCCCN3CCN(CCCNC(=S)NN=C1)CC3)CC2,Potency,[1],active: 3.98 µM
O=C(O)CN1CCN(Cc2ccc(F)cc2Cl)C1=O,"activity change, negative = inhibition",[1],inconclusive: 34.9%
COc1ccc(C2N(c3ccc(F)cc3)C(=O)C3CCCN32)cc1 (stereo unspecified),"activity change, negative = inhibition",[1],inconclusive: 48.1%
O=C(O)C1CCN(S(=O)(=O)c2cccnc2)CC1,"activity change, negative = inhibition",[1],inconclusive: 37.9%
CCn1nnc(-c2ccccc2NC(=O)c2cc(OC)c(OC)c(OC)c2)n1,"activity change, negative = inhibition",[1],inactive
C[C@@]1(CO)[C@H](O)CC[C@]2(C)[C@@H]1CC[C@H]1C[C@H]3C[C@]12CC[C@]3(O)COC(=O)CN,"activity change, negative = inhibition",[1],inactive: -0.126% [at 11 µM]
CCCOc1ccc(C(=O)Nc2ccc(N3CCN(C(C)=O)CC3)cc2)cc1,"activity change, negative = inhibition",[1],inactive
CC(C)C[C@@H](CC(=O)N[C@H](CC(=O)N[C@@H]1CCCC[C@H]1C(=O)N[C@H](CC(=O)N[C@@H](CCC(=O)O)CC(=O)O)Cc1c[nH]c2ccccc12)C(C)C)NC(=O)[C@@H]1CNCC[C@H]1N,"activity change, negative = inhibition",[1],inactive
COc1ccccc1Cc1noc(COc2cccc(C)c2C)n1,Potency,[1],"inconclusive: 31.6 µM [activator, single point]"
c1ccc(-c2nc3ccccc3nc2-c2ccccn2)nc1,Potency,[1],"inconclusive: 31.6 µM [inhibitor, single point]"
O=C(Oc1cccc2cccnc12)c1cccs1,Potency,[1],"inconclusive: 39.8 µM [inhibitor, single point]"
COc1ccc(OC)c(C(=O)COC(=O)c2ccccc2O)c1,Potency,[1],"inconclusive: 25.1 µM [activator, single point]"
CC(=O)O[C@]1(C(C)=O)CC[C@@H]2[C@@H]3C=C(C)C4=CC(=O)CC[C@@]4(C)[C@H]3CC[C@]21C,"activity change, negative = inhibition",[1],inconclusive: 62.4% [at 26 µM]
Cc1cc(Cn2cnc3c2C[C@@H](C(=O)O)N(C(=O)C(c2ccccc2)c2ccccc2)C3)ccc1N(C)C,"activity change, negative = inhibition",[1],inactive
O=C(O)c1ccncc1.O=C(O)c1ccncc1.[Cl][Pt]([Cl])([Cl])[Cl],"activity change, negative = inhibition",[1],inactive: -0.811% [at 11 µM]
Cn1c(=O)[nH]c(=O)c2c1nc(N1CCCCC1)n2CCOc1ccccc1,"activity change, negative = inhibition",[1],inactive
CCC(=O)c1cc2c(C)cc(=O)oc2c(C)c1O,"activity change, negative = inhibition",[1],inactive
COc1cccc(-c2noc(C3CCCN(S(=O)(=O)c4cccc(Cl)c4C)C3)n2)c1 (stereo unspecified),Potency,[1],"inconclusive: 39.8 µM [activator, single point]"
CCOC(=O)c1c(NC(=O)c2ccc(Br)o2)sc2c1CCCC2,Potency,[1],"inconclusive: 2.51 µM [activator, partial curve]"
O=S1(=O)Nc2c(ccc3cccnc23)-c2ccccc21,Potency,[1],active: 3.16 µM
O=C(Cc1cn2ccsc2n1)OCc1nc2ccccc2s1,Potency,[1],"inconclusive: 25.1 µM [inhibitor, single point]"
CCOc1cc(C)c(Cl)cc1S(=O)(=O)NCC1CCCO1 (stereo unspecified),"activity change, negative = inhibition",[1],inconclusive: 52%
CCOc1ccc2[nH]c(=O)c(CN(Cc3ccc(F)cc3)C(=O)c3ccco3)cc2c1,"activity change, negative = inhibition",[1],inconclusive: 59%
O[C@H](C[C@@H]1CCCCN1)c1ccc2c(c1)oc1ccccc12,"activity change, negative = inhibition",[1],inactive: -8.37% [at 11 µM]
O=C(Cn1c(=O)oc2cc(S(=O)(=O)N3CCCC3)ccc21)Nc1ccc(C(F)(F)F)cc1,"activity change, negative = inhibition",[1],inconclusive: 44.1%
CCCn1c(NC(=O)C2CCN(S(=O)(=O)c3cccs3)CC2)nc2ccccc21,"activity change, negative = inhibition",[1],inactive
N#Cc1c(NCCCO)nc(NCc2ccccc2)c2c1CCN(Cc1ccccc1)C2,"activity change, negative = inhibition",[1],inactive
N=c1c(C(=O)NCc2ccco2)cc2c(=O)n3ccccc3nc2n1Cc1ccccc1,"activity change, negative = inhibition",[1],inactive
COC1(OC)N=C(N)C2(C#N)C(c3ccc(F)cc3)C12C#N (stereo unspecified),Potency,[1],"inconclusive: 39.8 µM [inhibitor, single point]"
CC(C)C(=O)Nc1ccc(NC(=O)c2cc3ccccc3o2)cc1,"activity change, negative = inhibition",[1],inactive
O=C(CN(C1CCCCC1)S(=O)(=O)c1ccc(F)cc1)NCCCO,"activity change, negative = inhibition",[1],inconclusive: 42.3%
COC(=O)c1cccc(CSc2nnc(C)s2)c1,"activity change, negative = inhibition",[1],inconclusive: 45.9%
COCCn1c(=O)c(-c2cc(F)cc(F)c2)nc2cnc(N(C)C)nc21,"activity change, negative = inhibition",[1],inactive
COc1ccc(C(CC(=O)NCCCN2CCOCC2)NS(=O)(=O)c2ccc(C)cc2)cc1 (stereo unspecified),"activity change, negative = inhibition",[1],inconclusive: 48%
COC(=O)[C@@]1(Cc2ccc(F)cc2)[C@H]2c3cc(C(=O)N4CCCC4)n(Cc4ccc(S(C)(=O)=O)cc4)c3C[C@H]2CN1C(=O)c1ccccc1,"activity change, negative = inhibition",[1],inactive
Cc1ccc(C)c(S(=O)(=O)NCCOC(=O)Nc2sc(=S)n(C)c2C)c1,"activity change, negative = inhibition",[1],inconclusive: 37.7% [at 11 µM]
COc1ccc(-c2nnc(NC(=O)c3ccc(S(=O)(=O)N4COCC4(C)C)cc3)o2)cc1,Potency,[1],"inconclusive: 31.6 µM [inhibitor, single point]"
COC(=O)Cn1cc(C(=O)C2CC2)c2ccccc21,"activity change, negative = inhibition",[1],inconclusive: 43.6%
CCOc1cc(-c2ccc(N)c(OCC)c2)ccc1N,Potency,[1],"inconclusive: 25.1 µM [inhibitor, partial curve]"
O=C(c1cc(-c2ccccc2)nc2ccccc12)N1CCN(c2ccccn2)CC1,"activity change, negative = inhibition",[1],inactive
Cc1c(S(=O)(=O)Nc2cccc(Cl)c2)c(=O)n(C)c(=O)n1C,"activity change, negative = inhibition",[1],inactive
CC(CCC(=O)O)(c1ccc(O)cc1)c1ccc(O)cc1,"activity change, negative = inhibition",[1],inconclusive: 48.6%
same,"activity change, negative = inhibition",at 11 µM (top of the series),inactive: 4.38%
O=C(Nc1ccc(N2CCOCC2)c(Cl)c1)c1ncn[nH]1,Potency,[1],"inconclusive: 25.1 µM [inhibitor, partial curve]"
CCCCc1cc2c(c(NC(C)=O)n1)c(=O)oc1ccccc12,"activity change, negative = inhibition",[1],inconclusive: 48.6%
CCC(CC)NCc1ccc(OC)cc1OC,"activity change, negative = inhibition",[1],inactive
N#Cc1nc(-c2cccs2)oc1N1CCN(c2ccccc2)CC1,Potency,[1],"inconclusive: 31.6 µM [inhibitor, single point]"
Cc1nc2cnc(N(C)C)nc2n(CCc2ccccc2)c1=O,Potency,[1],"inconclusive: 31.6 µM [activator, single point]"
O=S(=O)(c1ccccc1)c1nc(-c2cccs2)oc1NCCCn1ccnc1,Potency,[1],"inconclusive: 25.1 µM [inhibitor, partial curve]"
C=CCc1cccc2cc(C(=O)N(CC)CC)c(=O)oc12,"activity change, negative = inhibition",[1],inconclusive: 31.7%
COc1cccc(OCc2nnc(SCC(=O)OCc3ccccc3)o2)c1,Potency,[1],"inconclusive: 31.6 µM [activator, single point]"
O=S(=O)(NCC1CCCO1)c1ccc(Cl)c(C(F)(F)F)c1 (stereo unspecified),"activity change, negative = inhibition",[1],inconclusive: 42.2%
COc1ccccc1NC(=O)CSc1nnc(-c2ccco2)n1Cc1ccco1,"activity change, negative = inhibition",[1],inactive
Cc1c(-c2nc(N)nc(Nc3ccccc3F)n2)oc2ccccc12,"activity change, negative = inhibition",[1],inactive
O=C1Nc2ccccc2C1=Nc1cccc2ncccc12,"activity change, negative = inhibition",[1],inactive: 0.061% [at 11 µM]
COc1ccc(N(CC(=O)N2CCc3ccccc32)S(=O)(=O)c2c(C)n[nH]c2C)cc1,"activity change, negative = inhibition",[1],inconclusive: 28.4%
CCN(CC)c1ccc2cc(-c3nc4ccccc4[nH]3)c(=O)oc2c1,Potency,[1],"inconclusive: 0.501 µM [activator, partial curve]"
O=C1CC(/C=C/c2ccco2)=Nc2ccccc2N1,Potency,[1],"inconclusive: 31.6 µM [inhibitor, partial curve]"
COc1ccc(NC(=O)Nc2ccc(OCC(=O)N3CCOCC3)cc2)cc1OC,"activity change, negative = inhibition",[1],inactive: -6.4% [at 11 µM]
Cc1ccccc1CSc1nnc(-c2ccccn2)n1N,Potency,[1],"inconclusive: 31.6 µM [inhibitor, partial curve]"
Fc1ccc(-c2cc(C(F)(F)F)nc(N3CCCCC3)n2)cc1,Potency,[1],"inconclusive: 20 µM [activator, partial curve]"
CCOc1cc(N2CCOCC2)c(OCC)cc1NC(=O)Cn1[nH]c(=O)c2ccccc2c1=O,"activity change, negative = inhibition",[1],inactive
CCn1c(SCc2cccnc2)nc2c1c(=O)n(C)c(=O)n2C,"activity change, negative = inhibition",[1],inconclusive: 21.3%
CC(=O)c1c(C(C)=O)c(C)n(Cc2ccc3c(c2)OCO3)c1C,"activity change, negative = inhibition",[1],inactive
OCCn1c(-c2ccc3c(c2)OCO3)csc1=Nc1ccccc1,Potency,[1],"inconclusive: 15.8 µM [inhibitor, partial curve]"
Cc1cnc(C(=O)Nc2nnc(C(C)C)s2)cn1,Potency,[1],"inconclusive: 31.6 µM [inhibitor, single point]"

# 5 successive entries from above, quoted:
smiles,measurement,setting,value
O=C1CC(/C=C/c2ccco2)=Nc2ccccc2N1,Potency,[1],"inconclusive: 31.6 µM [inhibitor, partial curve]"
COc1ccc(NC(=O)Nc2ccc(OCC(=O)N3CCOCC3)cc2)cc1OC,"activity change, negative = inhibition",[1],inactive: -6.4% [at 11 µM]
Cc1ccccc1CSc1nnc(-c2ccccn2)n1N,Potency,[1],"inconclusive: 31.6 µM [inhibitor, partial curve]"
Fc1ccc(-c2cc(C(F)(F)F)nc(N3CCCCC3)n2)cc1,Potency,[1],"inconclusive: 20 µM [activator, partial curve]"
CCOc1cc(N2CCOCC2)c(OCC)cc1NC(=O)Cn1[nH]c(=O)c2ccccc2c1=O,"activity change, negative = inhibition",[1],inactive

# A second format for some results above:
smiles | measurement | setting | value
COc1ccc(-c2nnc(NC(=O)c3ccc(S(=O)(=O)N4COCC4(C)C)cc3)o2)cc1 | Potency | [1] | inconclusive: 31.6 µM [inhibitor, single point]
COC(=O)Cn1cc(C(=O)C2CC2)c2ccccc21 | activity change, negative = inhibition | [1] | inconclusive: 43.6%
